This is an account of results in PMC7660501.

Amino acid sequences for entries named in this document (tags omitted).
UniProt Q08775: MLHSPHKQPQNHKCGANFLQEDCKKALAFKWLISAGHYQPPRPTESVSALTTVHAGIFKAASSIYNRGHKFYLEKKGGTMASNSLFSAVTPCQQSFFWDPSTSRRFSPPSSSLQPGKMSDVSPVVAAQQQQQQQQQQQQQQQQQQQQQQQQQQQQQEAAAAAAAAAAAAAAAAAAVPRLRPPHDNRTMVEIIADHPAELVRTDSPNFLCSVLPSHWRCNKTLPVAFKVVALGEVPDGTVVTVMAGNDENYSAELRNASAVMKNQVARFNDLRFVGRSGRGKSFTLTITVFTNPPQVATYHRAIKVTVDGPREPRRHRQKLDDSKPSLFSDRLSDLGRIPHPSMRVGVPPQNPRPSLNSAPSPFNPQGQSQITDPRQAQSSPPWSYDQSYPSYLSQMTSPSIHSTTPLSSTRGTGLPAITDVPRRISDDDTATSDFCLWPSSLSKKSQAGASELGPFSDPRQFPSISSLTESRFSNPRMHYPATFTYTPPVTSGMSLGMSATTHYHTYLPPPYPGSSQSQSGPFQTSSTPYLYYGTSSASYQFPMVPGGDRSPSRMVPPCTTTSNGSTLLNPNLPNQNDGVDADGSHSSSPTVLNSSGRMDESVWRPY

In this test the target is T1, Signal Transducer and Activator of Transcription 1 (STAT1) (mouse (endogenous in R1 mESC-derived EBs and MC3T3-E1)) (UniProt P42225).
T1 sequence: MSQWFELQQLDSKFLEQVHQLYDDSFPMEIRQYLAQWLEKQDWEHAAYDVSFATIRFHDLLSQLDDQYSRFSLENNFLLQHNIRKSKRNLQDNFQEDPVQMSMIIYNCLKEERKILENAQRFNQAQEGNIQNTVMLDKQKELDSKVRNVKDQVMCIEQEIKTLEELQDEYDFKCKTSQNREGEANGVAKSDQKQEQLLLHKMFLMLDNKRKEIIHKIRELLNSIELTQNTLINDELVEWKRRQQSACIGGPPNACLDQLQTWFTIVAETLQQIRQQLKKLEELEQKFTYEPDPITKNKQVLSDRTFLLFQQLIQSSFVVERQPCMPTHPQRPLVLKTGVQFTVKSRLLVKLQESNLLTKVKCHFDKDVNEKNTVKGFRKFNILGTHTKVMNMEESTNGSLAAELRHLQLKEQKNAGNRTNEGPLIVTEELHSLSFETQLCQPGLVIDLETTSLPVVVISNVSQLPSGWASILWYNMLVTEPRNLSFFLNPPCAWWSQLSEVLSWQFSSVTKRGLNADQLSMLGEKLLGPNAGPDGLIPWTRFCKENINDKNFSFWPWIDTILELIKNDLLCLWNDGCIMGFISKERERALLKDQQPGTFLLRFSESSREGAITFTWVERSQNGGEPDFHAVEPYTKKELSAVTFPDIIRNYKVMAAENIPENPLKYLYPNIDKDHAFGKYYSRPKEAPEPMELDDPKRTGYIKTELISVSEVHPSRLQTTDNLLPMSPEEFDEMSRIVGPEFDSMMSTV
In words: co-IP; IP with anti-STAT1 from lysates of MC3T3-E1 cells (control of the c-Src siRNA experiment), 48 hrs post-transfection; blot for Runx2 and STAT1.

These are yes or no findings as the source states them, for the method shown. In cells and extracts the contact can be indirect. Some entries that bind do so weakly or less than the wild type.

Regarding “Runt-related transcription factor 2 (Runx2) (from UniProt Q08775 1-607)”, the binding result is given as “binds”.
